Experimental data: patent publication US20160177373

The chains behind the UniProt entries cited, without tags or fusion partners.
UniProt P19821, whole entry E397V: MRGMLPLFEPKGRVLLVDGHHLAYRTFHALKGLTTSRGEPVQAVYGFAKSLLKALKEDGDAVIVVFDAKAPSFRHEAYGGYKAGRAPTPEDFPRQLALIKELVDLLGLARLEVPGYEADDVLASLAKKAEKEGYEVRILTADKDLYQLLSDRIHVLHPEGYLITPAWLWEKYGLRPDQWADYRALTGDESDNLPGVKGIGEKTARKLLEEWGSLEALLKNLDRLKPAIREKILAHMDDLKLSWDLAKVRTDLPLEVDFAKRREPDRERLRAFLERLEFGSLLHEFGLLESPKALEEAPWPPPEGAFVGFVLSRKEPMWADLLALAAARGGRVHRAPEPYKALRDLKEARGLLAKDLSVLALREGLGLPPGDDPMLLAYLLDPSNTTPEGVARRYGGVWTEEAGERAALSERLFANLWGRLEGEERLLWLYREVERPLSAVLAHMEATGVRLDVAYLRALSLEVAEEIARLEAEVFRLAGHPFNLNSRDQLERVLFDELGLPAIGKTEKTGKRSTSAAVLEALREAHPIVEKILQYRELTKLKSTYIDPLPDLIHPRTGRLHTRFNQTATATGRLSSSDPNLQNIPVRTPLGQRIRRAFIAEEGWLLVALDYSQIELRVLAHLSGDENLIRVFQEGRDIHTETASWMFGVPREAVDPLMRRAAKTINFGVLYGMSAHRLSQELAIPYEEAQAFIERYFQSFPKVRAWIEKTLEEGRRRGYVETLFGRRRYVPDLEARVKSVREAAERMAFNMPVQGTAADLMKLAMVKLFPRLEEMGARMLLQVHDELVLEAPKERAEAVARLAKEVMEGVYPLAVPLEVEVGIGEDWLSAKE
UniProt P19821, whole entry E397V/E745T: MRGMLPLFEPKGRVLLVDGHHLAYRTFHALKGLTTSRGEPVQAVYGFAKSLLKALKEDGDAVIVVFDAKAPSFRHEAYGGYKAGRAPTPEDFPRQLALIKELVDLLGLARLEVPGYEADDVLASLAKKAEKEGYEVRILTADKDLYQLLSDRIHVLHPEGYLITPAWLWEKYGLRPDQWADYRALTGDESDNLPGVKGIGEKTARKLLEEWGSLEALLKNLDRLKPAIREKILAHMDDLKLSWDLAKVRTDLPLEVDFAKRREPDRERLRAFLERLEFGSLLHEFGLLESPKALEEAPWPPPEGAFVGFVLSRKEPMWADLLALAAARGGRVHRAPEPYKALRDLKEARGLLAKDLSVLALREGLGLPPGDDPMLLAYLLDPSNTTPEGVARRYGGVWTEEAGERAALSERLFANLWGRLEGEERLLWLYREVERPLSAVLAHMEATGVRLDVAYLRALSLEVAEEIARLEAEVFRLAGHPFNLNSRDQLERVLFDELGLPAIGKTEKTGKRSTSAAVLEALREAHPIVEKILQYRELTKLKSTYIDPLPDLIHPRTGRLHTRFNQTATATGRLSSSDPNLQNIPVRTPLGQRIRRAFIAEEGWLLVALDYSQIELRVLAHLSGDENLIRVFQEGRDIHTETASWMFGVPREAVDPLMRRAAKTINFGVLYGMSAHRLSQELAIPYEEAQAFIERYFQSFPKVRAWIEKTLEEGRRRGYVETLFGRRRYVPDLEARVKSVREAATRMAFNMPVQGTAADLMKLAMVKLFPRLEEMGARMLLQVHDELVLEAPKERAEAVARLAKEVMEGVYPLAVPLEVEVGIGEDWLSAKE
UniProt P19821, whole entry E794C/E805I: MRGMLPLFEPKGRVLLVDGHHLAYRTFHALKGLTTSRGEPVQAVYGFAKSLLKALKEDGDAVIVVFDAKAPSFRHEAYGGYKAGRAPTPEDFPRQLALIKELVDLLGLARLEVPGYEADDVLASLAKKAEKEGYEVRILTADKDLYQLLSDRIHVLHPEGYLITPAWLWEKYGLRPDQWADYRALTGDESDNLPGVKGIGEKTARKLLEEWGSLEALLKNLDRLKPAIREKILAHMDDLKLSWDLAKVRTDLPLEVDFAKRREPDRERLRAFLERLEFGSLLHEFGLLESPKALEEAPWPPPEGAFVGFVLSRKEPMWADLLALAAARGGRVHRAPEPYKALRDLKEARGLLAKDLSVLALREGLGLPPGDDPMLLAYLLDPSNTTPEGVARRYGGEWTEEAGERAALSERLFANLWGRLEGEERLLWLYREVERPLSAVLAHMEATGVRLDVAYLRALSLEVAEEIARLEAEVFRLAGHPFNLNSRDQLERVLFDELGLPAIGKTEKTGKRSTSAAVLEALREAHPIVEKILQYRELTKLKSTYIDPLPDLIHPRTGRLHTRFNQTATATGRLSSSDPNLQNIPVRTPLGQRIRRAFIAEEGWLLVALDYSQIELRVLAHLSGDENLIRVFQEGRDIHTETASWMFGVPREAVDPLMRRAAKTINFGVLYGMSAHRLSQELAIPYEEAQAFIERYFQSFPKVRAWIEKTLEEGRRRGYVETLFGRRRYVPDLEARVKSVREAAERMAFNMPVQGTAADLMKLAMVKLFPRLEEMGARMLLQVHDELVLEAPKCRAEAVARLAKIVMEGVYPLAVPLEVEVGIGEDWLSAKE
UniProt P19821, whole entry G418C: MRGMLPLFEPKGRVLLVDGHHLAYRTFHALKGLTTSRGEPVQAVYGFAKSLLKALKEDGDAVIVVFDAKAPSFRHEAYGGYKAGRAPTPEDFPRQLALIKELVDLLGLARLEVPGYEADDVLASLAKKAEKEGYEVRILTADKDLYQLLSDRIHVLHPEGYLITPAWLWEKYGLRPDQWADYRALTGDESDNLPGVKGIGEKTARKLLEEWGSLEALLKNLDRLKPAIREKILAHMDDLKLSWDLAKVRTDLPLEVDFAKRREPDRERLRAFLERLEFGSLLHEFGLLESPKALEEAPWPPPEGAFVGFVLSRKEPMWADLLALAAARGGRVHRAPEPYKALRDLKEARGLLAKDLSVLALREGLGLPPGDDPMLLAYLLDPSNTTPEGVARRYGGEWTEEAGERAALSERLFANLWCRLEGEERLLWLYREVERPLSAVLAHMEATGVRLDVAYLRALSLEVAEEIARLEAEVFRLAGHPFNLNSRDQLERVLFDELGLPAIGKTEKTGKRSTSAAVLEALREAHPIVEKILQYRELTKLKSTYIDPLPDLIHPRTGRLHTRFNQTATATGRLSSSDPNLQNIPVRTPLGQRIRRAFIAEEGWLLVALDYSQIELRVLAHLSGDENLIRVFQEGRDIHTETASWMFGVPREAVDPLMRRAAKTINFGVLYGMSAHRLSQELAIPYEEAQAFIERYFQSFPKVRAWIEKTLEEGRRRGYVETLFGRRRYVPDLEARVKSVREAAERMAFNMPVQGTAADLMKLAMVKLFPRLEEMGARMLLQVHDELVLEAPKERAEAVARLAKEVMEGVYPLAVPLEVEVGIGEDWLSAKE
UniProt P19821, whole entry: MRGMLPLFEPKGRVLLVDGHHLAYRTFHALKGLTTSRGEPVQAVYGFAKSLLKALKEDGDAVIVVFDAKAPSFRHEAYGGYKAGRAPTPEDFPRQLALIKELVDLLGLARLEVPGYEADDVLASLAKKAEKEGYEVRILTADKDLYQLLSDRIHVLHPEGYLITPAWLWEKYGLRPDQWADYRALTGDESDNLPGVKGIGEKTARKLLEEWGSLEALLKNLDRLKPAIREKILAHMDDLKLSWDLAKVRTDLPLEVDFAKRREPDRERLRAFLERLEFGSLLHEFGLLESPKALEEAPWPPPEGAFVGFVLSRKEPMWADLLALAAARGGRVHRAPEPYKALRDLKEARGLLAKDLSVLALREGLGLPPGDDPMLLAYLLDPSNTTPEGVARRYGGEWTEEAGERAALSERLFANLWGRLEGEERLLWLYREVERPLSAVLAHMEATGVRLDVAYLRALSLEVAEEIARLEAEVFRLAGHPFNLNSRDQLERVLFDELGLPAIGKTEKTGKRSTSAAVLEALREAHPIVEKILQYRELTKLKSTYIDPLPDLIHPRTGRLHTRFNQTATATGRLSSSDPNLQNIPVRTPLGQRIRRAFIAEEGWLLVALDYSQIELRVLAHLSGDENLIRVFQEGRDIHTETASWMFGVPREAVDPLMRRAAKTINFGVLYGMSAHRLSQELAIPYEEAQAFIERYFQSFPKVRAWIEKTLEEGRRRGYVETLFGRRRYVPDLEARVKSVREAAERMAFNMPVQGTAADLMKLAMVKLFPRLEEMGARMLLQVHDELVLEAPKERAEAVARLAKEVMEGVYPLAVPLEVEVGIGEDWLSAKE
UniProt P19821, whole entry D732R: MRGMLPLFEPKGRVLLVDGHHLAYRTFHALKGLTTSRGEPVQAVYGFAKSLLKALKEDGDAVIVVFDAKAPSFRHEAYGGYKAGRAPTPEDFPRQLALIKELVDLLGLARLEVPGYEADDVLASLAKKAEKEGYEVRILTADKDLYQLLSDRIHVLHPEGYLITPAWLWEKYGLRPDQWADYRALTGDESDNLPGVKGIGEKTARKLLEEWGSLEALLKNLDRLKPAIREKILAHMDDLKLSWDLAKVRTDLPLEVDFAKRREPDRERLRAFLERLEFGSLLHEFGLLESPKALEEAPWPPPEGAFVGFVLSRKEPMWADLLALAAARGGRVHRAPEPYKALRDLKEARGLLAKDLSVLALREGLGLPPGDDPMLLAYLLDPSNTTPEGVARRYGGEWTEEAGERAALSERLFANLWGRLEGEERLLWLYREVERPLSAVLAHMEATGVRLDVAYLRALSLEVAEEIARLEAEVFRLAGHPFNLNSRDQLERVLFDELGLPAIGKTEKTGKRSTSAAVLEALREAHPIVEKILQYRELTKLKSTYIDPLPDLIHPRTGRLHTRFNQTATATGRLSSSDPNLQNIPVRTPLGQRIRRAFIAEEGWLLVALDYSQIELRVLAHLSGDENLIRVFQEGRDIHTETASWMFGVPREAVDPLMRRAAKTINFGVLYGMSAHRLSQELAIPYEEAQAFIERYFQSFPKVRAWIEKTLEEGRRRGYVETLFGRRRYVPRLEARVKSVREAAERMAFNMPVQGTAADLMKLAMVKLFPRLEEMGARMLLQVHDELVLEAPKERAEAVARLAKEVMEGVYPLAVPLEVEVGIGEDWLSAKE

Tests used:
Experiment in all cases: activity assay
Conditions in all cases: X = fluorescein-dT [34 (fluorescein-dT)]; purified recombinant protein; label: fluorescein (internal dT); folded or branched DNA; letters built from the parent sequence and the stated change
[1] = target: Taq DNA polymerase E397V (Thermus aquaticus) (UniProt P19821)
[2] = target: Taq DNA polymerase E397V+E745T (Thermus aquaticus) (UniProt P19821)
[3] = target: Taq DNA polymerase E794C+E805I (Thermus aquaticus) (UniProt P19821)
[4] = target: Taq DNA polymerase G418C (Thermus aquaticus) (UniProt P19821)
[5] = target: Taq DNA polymerase wild type (Thermus aquaticus) (UniProt P19821)
[6] = target: Taq-LR1 (Taq DNA polymerase D732R) (Thermus aquaticus) (UniProt P19821)

Measured: activity on this sequence

TTTTTTTGCAGGTGACAGGTTTTTCCTGTCACCTGC [Oligo 221]
active: all assays above
